Experimental data: PubChem BioAssay AID1224830 (NIAID, 2016)
This is a random part of about 18,000 reagents tested. In the full data, about 2,900 (16%) got an active call. 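Calls are made per well; low scores hint the gene aids the LPS response, high scores that it dampens it.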 Repeated entries: four replicate wells of each siRNA pool. Reagent sequences are not shown.

Assay: 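Host factors that control LPS-induced TNF expression in human macrophages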 (primary screen)
System: human THP-1 monocytic leukaemia cells, TNF dual-luciferase reporter clone, PMA-differentiated to macrophage-like cells
Reagents: siRNA pool against human genes, 50 nM
Timing: LPS for 4 h, given about 3 days after siRNA transfection
Conditions: bacterial LPS (TLR4 ligand), 10 ng/ml
Read-out: 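TNF firefly reporter luminescence divided by renilla, normalised to the plate median, then turned into a robust z-score for each replicate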
Direction: TNF reporter robust z-score: higher = stronger TNF reporter response to LPS
Hit rule: 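Each well counts as active if its z-score is over 2.8 or under -1.5; controls are left without a call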

target gene | TNF reporter robust z-score | activity call
SENP3 | 0.61 | inactive
SENP3 | 1.57 | inactive
SENP3 | 0.01 | inactive
SENP3 | 0.26 | inactive
VEGFB | 0.45 | inactive
VEGFB | 0.66 | inactive
VEGFB | 0.23 | inactive
VEGFB | 0.28 | inactive
SPMIP6 | 0.71 | inactive
SPMIP6 | -0.1 | inactive
SPMIP6 | 0.42 | inactive
SPMIP6 | 0.57 | inactive
RETREG3 | -0.71 | inactive
RETREG3 | -0.79 | inactive
RETREG3 | -0.75 | inactive
RETREG3 | -0.52 | inactive
DARS2 | – | inactive
NLRC3 | -0.57 | inactive
NLRC3 | -0.06 | inactive
NLRC3 | -0.6 | inactive
NLRC3 | -0.55 | inactive
ZNHIT1 | -0.51 | inactive
ZNHIT1 | 0.41 | inactive
ZNHIT1 | -0.41 | inactive
ZNHIT1 | 0.02 | inactive
CRYGA | -0.82 | inactive
CRYGA | -0.41 | inactive
CRYGA | -0.6 | inactive
CRYGA | -0.39 | inactive
BRSK1 | 0.6 | inactive
BRSK1 | 0.58 | inactive
BRSK1 | 1.92 | inactive
BRSK1 | 1.42 | inactive
PXYLP1 | -1.56 | active
PXYLP1 | -1.25 | inactive
PXYLP1 | -0.29 | inactive
PXYLP1 | -0.84 | inactive
TELO2 | 0.43 | inactive
TELO2 | -0.15 | inactive
TELO2 | -0.42 | inactive
TELO2 | 0.97 | inactive
PYHIN1 | -0.9 | inactive
PYHIN1 | -0.03 | inactive
PYHIN1 | 0.02 | inactive
PYHIN1 | -0.15 | inactive

7 entries from above, sorted by “TNF reporter robust z-score”, low to high:
target gene | TNF reporter robust z-score | activity call
PYHIN1 | -0.9 | inactive
TELO2 | -0.42 | inactive
TELO2 | -0.15 | inactive
PYHIN1 | -0.03 | inactive
PYHIN1 | 0.02 | inactive
TELO2 | 0.43 | inactive
TELO2 | 0.97 | inactive
